{"source": "patent US4954347A", "about": "(priority 1988, dated 1990)", "key": {"[1]": {"details": "oral; cited from earlier work"}, "[2]": {"details": "one patient; co-administration of 80 mg quinidine gluconate every 8 hours; 8 hour dosing interval"}}, "note": "Structures can show the parent of a compound that is named as a salt."}
{"compound": "CCCNCC(O)COc1ccccc1C(=O)CCc1ccccc1", "note": "(centres unmarked) [propafenone, 2'-[3-(prophylamino)-2-(hydroxy)-(propoxy)-3-phenylpropiophenone hydrochloride]", "values": [{"measurement": "hemodynamic changes or life-threatening toxic side effects", "setting": "[1]", "value": "does not appear to cause significant hemodynamic changes or life-threatening toxic side effects"}, {"measurement": "propafenone plasma concentrations, increase versus propafenone administered alone", "setting": "[2]", "value": "about 150%"}]}
